# Measurements as given in publication PMC5996148.
# “And” between values parts separate entries of the source, which are not always exact repeats. Identical values can stand only once. Some of the results follow.
# Assays:
# Experiment in all cases: protein microarray (ProtoArray v5.0), streptavidin-Alexa Fluor 647
# Conditions in all cases: 3'-biotin; 20 mM Tris (pH 7.5), 5 mM MgCl2, 100 mM KCl, 0.1% Tween-20, A/T-rich and random oligonucleotide blockers; temperature not stated; high values mean tight binding
# RBKS (human) = tested on: RBKS (human)
# RBM33 (human) = tested on: RBM33 (human)
# RBM9 (human) = tested on: RBM9 (human)
# RCP9 (human) = tested on: RCP9 (human)
# RCSD1 (human) = tested on: RCSD1 (human)
# RCVRN (human) = tested on: RCVRN (human)
# RD3 (human) = tested on: RD3 (human)
# RDH11 (human) = tested on: RDH11 (human)
# RDH12 (human) = tested on: RDH12 (human)
# RDHE2 (human) = tested on: RDHE2 (human)
sequence,measurement,setting,value
GGGAGGCTGAGGCAGG [G4-1 biotinylated (PQS2)],binding signal,RBKS (human),-0.285 z-score
same,binding signal,RBM33 (human),-0.332 z-score
same,binding signal,RBM9 (human),-0.342 z-score
same,binding signal,RCP9 (human),-0.341 z-score
same,binding signal,RCSD1 (human),-0.346 z-score
same,binding signal,RCVRN (human),-0.324 z-score
same,binding signal,RD3 (human),-0.303 z-score
same,binding signal,RDH11 (human),-0.289 z-score and -0.318 z-score
same,binding signal,RDH12 (human),-0.381 z-score
same,binding signal,RDHE2 (human),-0.332 z-score
